Experimental data: US20070264191A1, “Materials and Methods Relating to the Treatment of Glioblastomas” (priority 2004, published 2007)

tested on: human glioma cell lines (dGli36, SF767, U87MG, U251MG, U373MG); test: Phage-display library (Ph.D-12) biopanning against mixed human glioma cell lines; type: binding; conditions: 79 phage clones sequenced after enrichment and subtraction panning

Row | Sequence | Frequency of occurrence (% of total clones sequenced) [%]
1 | FDTPHTLTWPHG (FDTPHTLTWFHG) | 3
2 | HHGHSPTSPQVR | 4
3 | ILANDLTAPGPR | 5
4 | LPYGTSNRHAPV (LPYGTSWRHAPV) | 4
5 | LWAAFPPQASVA | 4
6 | LWATFPPRPPWL [MG11] | 19
7 | SGHQLLLNKMPN [MG2] | 24
8 | WSAAPTKPPYHT | 6
9 | YVQGWNYHDLTR | 4
